Data taken from patent US6706892B1, “Pulmonary delivery for bioconjugation” (priority 1999, dated 2004).

Assay: In vivo addition of NHS-rhodamine to an isolated carotid artery segment
Design: species or system New Zealand rabbits
Conditions: 100 μl of 500 μM incubated in 1-cm arterial incubation chamber for 3 minutes, then washed

Row | Substance | fluorescence of treated arteries
1 | Rhodamine | little fluorescence over background
2 | Rhodamine Green™-X, succinimidyl ester, hydrochloride mixed isomers [NHS-Rhodamine] | dramatic levels of fluorescence
